Assay results as given in the supplement of paper PMC6411743.
± gives the standard deviation of the averaged measurements. The list shows a part of the results.

By UniProt entry, the sequences of proteins in these tests, tags left out. Where a name states a change or a piece, a line headed by the entry shows the natural chain unless it says otherwise.
UniProt P14866: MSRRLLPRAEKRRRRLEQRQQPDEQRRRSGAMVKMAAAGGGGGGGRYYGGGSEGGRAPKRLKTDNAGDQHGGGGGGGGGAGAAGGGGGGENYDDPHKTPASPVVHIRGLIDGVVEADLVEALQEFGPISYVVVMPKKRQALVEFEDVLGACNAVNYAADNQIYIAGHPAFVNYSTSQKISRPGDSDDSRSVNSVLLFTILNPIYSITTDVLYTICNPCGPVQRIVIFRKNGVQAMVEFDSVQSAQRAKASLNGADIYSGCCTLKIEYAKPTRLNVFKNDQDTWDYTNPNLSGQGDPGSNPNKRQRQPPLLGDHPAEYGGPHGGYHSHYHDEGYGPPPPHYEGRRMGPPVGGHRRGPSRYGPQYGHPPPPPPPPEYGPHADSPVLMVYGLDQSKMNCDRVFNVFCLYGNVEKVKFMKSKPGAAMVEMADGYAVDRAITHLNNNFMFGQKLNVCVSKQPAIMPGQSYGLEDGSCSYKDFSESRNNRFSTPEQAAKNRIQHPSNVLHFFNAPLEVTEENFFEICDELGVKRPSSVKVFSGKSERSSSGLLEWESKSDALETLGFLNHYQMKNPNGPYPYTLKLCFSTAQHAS
UniProt P11274: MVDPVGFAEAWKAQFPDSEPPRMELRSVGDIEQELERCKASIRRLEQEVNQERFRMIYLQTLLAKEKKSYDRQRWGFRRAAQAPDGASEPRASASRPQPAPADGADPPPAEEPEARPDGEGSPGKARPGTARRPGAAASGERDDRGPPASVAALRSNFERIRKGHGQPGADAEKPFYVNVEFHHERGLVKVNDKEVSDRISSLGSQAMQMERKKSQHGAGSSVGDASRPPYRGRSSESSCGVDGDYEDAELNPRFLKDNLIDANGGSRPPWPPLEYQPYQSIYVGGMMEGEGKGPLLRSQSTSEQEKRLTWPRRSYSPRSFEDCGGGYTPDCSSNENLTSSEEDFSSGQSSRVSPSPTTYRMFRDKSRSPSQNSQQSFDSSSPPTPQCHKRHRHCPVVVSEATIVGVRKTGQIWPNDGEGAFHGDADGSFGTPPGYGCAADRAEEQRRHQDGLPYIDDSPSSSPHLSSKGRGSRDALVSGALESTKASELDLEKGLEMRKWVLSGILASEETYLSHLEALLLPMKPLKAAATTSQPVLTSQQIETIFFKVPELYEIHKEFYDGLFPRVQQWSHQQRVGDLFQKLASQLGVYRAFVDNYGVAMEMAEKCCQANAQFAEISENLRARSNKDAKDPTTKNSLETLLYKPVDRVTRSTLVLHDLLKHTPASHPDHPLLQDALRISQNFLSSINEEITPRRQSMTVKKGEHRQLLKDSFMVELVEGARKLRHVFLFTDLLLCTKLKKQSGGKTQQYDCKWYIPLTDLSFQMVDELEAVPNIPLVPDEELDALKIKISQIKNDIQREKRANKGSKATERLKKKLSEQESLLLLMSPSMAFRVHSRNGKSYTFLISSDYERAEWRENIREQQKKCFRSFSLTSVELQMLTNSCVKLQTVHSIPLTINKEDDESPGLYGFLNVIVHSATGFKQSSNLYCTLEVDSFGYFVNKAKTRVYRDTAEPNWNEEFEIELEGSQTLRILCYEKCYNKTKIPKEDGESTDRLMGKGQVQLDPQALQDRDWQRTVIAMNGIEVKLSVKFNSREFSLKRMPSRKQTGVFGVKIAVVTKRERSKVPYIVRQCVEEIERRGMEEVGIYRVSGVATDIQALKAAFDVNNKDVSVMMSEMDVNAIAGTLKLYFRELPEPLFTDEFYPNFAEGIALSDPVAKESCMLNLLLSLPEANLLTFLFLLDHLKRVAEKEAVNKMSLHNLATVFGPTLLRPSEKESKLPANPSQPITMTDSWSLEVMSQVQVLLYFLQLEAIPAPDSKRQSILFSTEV
UniProt P11766: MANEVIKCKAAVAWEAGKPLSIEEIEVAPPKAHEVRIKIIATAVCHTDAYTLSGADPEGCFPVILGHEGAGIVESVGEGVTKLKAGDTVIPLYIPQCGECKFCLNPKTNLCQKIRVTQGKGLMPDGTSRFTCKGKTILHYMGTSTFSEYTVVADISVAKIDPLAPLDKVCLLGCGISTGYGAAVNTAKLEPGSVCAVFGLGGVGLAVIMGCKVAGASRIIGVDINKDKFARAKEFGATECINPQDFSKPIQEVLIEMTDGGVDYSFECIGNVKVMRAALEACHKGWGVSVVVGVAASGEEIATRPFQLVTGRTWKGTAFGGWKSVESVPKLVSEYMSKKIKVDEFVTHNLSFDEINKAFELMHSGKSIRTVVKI
UniProt P09661: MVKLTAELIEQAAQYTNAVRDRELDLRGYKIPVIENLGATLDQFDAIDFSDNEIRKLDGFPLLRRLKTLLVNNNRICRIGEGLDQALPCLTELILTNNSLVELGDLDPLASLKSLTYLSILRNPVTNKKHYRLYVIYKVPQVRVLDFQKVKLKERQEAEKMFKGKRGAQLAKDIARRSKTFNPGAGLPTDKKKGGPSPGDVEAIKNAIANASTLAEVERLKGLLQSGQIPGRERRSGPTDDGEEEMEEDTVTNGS
UniProt P14621: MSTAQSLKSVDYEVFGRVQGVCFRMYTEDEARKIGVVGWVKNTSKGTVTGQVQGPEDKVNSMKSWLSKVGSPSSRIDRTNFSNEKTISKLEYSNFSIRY
UniProt P26640: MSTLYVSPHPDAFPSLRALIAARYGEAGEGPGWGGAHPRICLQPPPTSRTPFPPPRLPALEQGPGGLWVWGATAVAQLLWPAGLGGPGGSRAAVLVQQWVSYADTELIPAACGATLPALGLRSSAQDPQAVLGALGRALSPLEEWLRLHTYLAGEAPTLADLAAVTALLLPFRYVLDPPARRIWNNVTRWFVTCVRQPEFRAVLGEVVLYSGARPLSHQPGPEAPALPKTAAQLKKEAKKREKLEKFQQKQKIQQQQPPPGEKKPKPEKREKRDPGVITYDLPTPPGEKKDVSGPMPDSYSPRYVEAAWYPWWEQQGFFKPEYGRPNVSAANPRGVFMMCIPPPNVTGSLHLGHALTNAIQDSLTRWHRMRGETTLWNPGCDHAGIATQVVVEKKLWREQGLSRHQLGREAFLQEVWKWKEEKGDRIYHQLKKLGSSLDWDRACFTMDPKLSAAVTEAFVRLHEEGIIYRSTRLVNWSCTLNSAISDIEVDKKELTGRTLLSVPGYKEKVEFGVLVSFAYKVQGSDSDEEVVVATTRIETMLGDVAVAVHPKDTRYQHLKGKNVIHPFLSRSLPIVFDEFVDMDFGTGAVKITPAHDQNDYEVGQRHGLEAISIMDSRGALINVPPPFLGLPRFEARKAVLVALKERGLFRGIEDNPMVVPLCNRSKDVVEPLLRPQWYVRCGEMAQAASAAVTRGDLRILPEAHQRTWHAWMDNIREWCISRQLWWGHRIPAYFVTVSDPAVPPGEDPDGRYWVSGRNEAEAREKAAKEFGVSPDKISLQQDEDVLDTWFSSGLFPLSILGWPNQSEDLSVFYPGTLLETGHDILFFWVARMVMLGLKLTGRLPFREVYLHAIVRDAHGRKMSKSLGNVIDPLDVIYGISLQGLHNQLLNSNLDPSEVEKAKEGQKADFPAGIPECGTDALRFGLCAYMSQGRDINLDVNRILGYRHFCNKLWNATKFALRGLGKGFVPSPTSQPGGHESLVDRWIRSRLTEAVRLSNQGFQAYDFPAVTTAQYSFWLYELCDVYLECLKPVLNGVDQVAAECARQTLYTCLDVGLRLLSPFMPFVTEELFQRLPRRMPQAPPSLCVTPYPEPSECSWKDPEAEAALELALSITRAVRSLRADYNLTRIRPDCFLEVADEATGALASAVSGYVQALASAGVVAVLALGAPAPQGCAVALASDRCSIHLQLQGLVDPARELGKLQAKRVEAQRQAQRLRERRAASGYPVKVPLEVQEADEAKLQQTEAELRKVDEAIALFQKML
UniProt P11310: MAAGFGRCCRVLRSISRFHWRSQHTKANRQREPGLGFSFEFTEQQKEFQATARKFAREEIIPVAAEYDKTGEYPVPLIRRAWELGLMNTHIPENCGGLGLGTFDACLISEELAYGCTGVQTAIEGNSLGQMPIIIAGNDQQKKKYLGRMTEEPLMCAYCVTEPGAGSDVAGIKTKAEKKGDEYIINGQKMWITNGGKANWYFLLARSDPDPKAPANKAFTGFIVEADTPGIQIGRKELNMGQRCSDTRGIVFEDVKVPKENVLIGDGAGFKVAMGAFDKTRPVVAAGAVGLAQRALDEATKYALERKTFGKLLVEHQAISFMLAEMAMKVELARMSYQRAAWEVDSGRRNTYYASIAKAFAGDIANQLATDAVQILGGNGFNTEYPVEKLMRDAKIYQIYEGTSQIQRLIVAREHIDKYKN
UniProt P21796, whole entry: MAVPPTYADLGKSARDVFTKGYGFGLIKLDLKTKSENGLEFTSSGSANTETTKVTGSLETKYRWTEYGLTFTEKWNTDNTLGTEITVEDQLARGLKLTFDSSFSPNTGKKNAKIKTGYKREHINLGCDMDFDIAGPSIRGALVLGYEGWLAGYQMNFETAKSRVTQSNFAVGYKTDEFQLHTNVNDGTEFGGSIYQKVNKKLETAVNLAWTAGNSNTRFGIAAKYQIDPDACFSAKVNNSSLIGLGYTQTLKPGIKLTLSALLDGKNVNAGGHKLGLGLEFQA
UniProt P17050: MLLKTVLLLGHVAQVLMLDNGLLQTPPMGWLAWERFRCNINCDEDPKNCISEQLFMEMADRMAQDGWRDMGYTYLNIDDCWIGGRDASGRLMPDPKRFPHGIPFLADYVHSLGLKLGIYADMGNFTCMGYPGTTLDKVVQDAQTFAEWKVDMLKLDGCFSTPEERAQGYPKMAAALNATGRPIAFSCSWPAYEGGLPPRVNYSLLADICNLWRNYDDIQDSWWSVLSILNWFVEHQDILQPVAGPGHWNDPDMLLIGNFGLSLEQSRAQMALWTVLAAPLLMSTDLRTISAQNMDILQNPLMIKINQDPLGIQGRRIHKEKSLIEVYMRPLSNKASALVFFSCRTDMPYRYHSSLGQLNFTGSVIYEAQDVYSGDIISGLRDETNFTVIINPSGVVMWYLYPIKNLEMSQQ
UniProt P26639: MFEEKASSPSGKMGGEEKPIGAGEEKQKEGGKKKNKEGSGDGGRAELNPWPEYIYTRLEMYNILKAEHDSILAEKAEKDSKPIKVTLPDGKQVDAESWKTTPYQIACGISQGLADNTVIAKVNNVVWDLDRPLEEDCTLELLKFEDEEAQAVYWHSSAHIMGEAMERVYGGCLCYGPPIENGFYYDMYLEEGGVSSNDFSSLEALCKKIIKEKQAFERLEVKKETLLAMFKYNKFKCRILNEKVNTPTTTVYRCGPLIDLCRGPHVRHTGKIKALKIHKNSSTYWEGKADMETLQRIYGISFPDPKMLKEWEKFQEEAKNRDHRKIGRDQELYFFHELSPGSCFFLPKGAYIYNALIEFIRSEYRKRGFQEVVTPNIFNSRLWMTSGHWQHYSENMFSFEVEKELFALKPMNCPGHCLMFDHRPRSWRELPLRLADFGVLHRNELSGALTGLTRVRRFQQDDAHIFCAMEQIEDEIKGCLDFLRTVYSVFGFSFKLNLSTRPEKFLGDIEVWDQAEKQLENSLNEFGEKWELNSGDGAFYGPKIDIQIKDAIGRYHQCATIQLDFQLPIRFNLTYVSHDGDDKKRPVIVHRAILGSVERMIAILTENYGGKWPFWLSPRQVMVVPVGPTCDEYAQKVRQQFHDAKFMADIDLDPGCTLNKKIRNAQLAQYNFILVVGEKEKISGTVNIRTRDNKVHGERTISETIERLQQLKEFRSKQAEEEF
UniProt P13796: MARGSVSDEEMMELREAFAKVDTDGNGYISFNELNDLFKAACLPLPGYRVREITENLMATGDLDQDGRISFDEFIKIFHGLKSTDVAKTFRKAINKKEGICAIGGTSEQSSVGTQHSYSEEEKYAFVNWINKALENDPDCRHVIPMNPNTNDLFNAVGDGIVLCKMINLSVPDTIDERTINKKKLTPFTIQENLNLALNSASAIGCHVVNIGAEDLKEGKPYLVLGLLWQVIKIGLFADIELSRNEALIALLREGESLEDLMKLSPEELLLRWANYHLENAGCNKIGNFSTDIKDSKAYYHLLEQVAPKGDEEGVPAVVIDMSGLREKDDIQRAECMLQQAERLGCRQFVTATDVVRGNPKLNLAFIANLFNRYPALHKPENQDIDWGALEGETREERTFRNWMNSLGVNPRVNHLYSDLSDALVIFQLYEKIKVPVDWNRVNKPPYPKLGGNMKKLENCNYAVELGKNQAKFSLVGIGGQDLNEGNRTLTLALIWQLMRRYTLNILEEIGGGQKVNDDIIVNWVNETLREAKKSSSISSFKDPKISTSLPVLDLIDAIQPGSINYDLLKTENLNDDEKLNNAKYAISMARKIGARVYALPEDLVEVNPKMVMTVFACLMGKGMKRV

Compound: Nc1nc2c(ncn2[C@@H]2O[C@H](COP(=O)(O)OP(=O)(O)OP(=O)(O)O)[C@@H](O)[C@H]2O)c(=O)[nH]1 [guanosine triphosphate]
Experiment: NP40-soluble protein abundance relative to vehicle (solubility fold change) (ratio); higher = more soluble protein in presence of GTP
In short: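 Crude Jurkat lysate, prepared by Dounce homogenisation, was exposed to eight concentrations from 0.1 to 10 mM for 10 min at room temperature and then 3 min at 37 °C. Solubilisation used 0.8% NP40 with benzonase for 60 min at 4 °C, followed by ultracentrifugation and TMT labelling of the supernatant for LC-MS/MS. After vsn normalisation of intensities, each value is the fold change against the detergent-processed vehicle within each replicate, across three independent experiments.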

| Target | NP40-soluble protein abundance (concentration: 0.1mM) | NP40-soluble protein abundance (concentration: 0.5mM) | NP40-soluble protein abundance (concentration: 1mM) | NP40-soluble protein abundance (concentration: 2mM) | NP40-soluble protein abundance (concentration: 4mM) | NP40-soluble protein abundance (concentration: 6mM) | NP40-soluble protein abundance (concentration: 8mM) | NP40-soluble protein abundance (concentration: 10mM) |
| --- | --- | --- | --- | --- | --- | --- | --- | --- |
| CTSB (UniProt P07858) | 0.979 ± 0.036 | 1.01 ± 0.021 | 0.992 ± 0.029 | 0.954 ± 0.0097 | 0.962 ± 0.036 | 0.973 ± 0.011 | 0.983 ± 0.016 | 0.958 ± 0.03 |
| UniProt P20701 and related entries | 1.012 ± 0.0059 | 0.998 ± 0.026 | 0.991 ± 0.012 | 0.978 ± 0.011 | 0.974 ± 0.019 | 0.982 ± 0.025 | 0.972 ± 0.0027 | 0.983 ± 0.03 |
| HNRNPL (UniProt P14866) | 1.03 ± 0.021 | 1.1 ± 0.061 | 1.12 ± 0.11 | 1.15 ± 0.12 | 1.19 ± 0.16 | 1.2 ± 0.16 | 1.27 ± 0.2 | 1.23 ± 0.18 |
| UniProt P11274 and related entries | 1.05 ± 0.058 | 1.06 ± 0.064 | 0.986 ± 0.067 | 1 ± 0.064 | 1.03 ± 0.068 | 0.972 ± 0.053 | 0.967 ± 0.021 | 0.919 ± 0.035 |
| ADH5 (UniProt P11766) | 0.976 ± 0.048 | 0.97 ± 0.041 | 0.899 ± 0.029 | 0.8934 ± 0.0078 | 0.883 ± 0.019 | 0.8828 ± 0.0086 | 0.858 ± 0.051 | 0.838 ± 0.053 |
| SNRPA1 (UniProt P09661) | 0.904 ± 0.019 | 0.867 ± 0.052 | 0.991 ± 0.023 | 1.01 ± 0.051 | 1.06 ± 0.033 | 1.04 ± 0.067 | 1.03 ± 0.081 | 1.14 ± 0.048 |
| UniProt P14621 and related entries | 1.03 ± 0.15 | 1 ± 0.11 | 1.08 ± 0.21 | 0.996 ± 0.19 | 0.991 ± 0.24 | 0.965 ± 0.22 | 0.989 ± 0.19 | 1.02 ± 0.15 |
| VARS (UniProt P26640) | 1.04 ± 0.025 | 1.08 ± 0.072 | 1.02 ± 0.072 | 1.05 ± 0.098 | 1.05 ± 0.093 | 1.06 ± 0.12 | 1.04 ± 0.11 | 1.02 ± 0.088 |
| UniProt P11310 and related entries | 0.965 ± 0.035 | 0.998 ± 0.032 | 0.924 ± 0.035 | 0.915 ± 0.015 | 0.903 ± 0.032 | 0.928 ± 0.015 | 0.906 ± 0.06 | 0.881 ± 0.034 |
| VDAC1 (UniProt P21796) | 0.936 ± 0.022 | 0.961 ± 0.028 | 0.903 ± 0.027 | 0.873 ± 0.021 | 0.869 ± 0.032 | 0.875 ± 0.025 | 0.856 ± 0.042 | 0.82 ± 0.047 |
| NAGA (UniProt P17050) | 1.01 ± 0.033 | 0.9779 ± 0.0094 | 1 ± 0.034 | 0.977 ± 0.027 | 0.999 ± 0.02 | 0.939 ± 0.045 | 1.04 ± 0.081 | 0.965 ± 0.062 |
| UniProt P19022 and related entries | 1.11 ± 0.085 | 1.05 ± 0.12 | 1.01 ± 0.16 | 1.14 ± 0.11 | 1.09 ± 0.095 | 1.16 ± 0.24 | 0.929 ± 0.075 | 1.05 ± 0.056 |
| UniProt P26639 | 1.02 ± 0.028 | 1.02 ± 0.044 | 0.944 ± 0.016 | 0.953 ± 0.053 | 0.959 ± 0.035 | 0.925 ± 0.033 | 0.908 ± 0.012 | 0.885 ± 0.036 |
| UniProt P10244 and related entries | 1.11 ± 0.17 | 1.2 ± 0.14 | 1.24 ± 0.2 | 1.21 ± 0.013 | 1.24 ± 0.14 | 1.27 ± 0.24 | 1.36 ± 0.27 | 1.35 ± 0.22 |
| LCP1 (UniProt P13796) | 1.03 ± 0.14 | 0.873 ± 0.1 | 0.985 ± 0.096 | 0.818 ± 0.14 | 0.96 ± 0.11 | 0.813 ± 0.12 | 0.865 ± 0.085 | 0.801 ± 0.095 |

Retrieved one by one from the list above (two):

| Target | NP40-soluble protein abundance (concentration: 0.1mM) | NP40-soluble protein abundance (concentration: 0.5mM) | NP40-soluble protein abundance (concentration: 1mM) | NP40-soluble protein abundance (concentration: 2mM) | NP40-soluble protein abundance (concentration: 4mM) | NP40-soluble protein abundance (concentration: 6mM) | NP40-soluble protein abundance (concentration: 8mM) | NP40-soluble protein abundance (concentration: 10mM) |
| --- | --- | --- | --- | --- | --- | --- | --- | --- |
| SNRPA1 (UniProt P09661) | 0.904 ± 0.019 | 0.867 ± 0.052 | 0.991 ± 0.023 | 1.01 ± 0.051 | 1.06 ± 0.033 | 1.04 ± 0.067 | 1.03 ± 0.081 | 1.14 ± 0.048 |
| UniProt P19022 and related entries | 1.11 ± 0.085 | 1.05 ± 0.12 | 1.01 ± 0.16 | 1.14 ± 0.11 | 1.09 ± 0.095 | 1.16 ± 0.24 | 0.929 ± 0.075 | 1.05 ± 0.056 |
